No constants are given. Whether binding was seen depends on the method and setting. Binding seen in cells or lysates may run through a third protein. Some results given as binding are weak or reduced against the parent protein; the word gives no strength. For part of these data: Sequences can lack the tags named with a protein.
How the values were obtained:
[1] = target: T1, Human Myc-tagged NDFIP2 (human) (UniProt Q9NV92); experiment: co-IP; HEK293T cells transfected with NEDD4, IFITM3 and NDFIP2 together (DNA ratio 1:1:0.2); lysis/IP buffer 50 mM Tris/HCl pH 7.4, 150 mM NaCl, 0.1% NP-40, 1 mM EDTA; IP with antibodies specific for IFITM3, NDFIP2 and NEDD4; Western blot
T1 sequence: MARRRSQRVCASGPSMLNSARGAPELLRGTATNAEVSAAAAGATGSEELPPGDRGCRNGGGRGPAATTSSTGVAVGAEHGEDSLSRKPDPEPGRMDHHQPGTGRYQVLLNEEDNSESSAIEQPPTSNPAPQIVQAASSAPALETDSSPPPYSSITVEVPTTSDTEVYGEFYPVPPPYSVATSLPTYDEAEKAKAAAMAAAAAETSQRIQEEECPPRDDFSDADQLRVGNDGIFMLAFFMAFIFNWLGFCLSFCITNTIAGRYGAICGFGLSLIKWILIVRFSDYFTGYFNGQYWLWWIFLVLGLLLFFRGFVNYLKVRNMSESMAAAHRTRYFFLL

Chains of the proteins cited; added tags and fusions are not shown.
UniProt P46934: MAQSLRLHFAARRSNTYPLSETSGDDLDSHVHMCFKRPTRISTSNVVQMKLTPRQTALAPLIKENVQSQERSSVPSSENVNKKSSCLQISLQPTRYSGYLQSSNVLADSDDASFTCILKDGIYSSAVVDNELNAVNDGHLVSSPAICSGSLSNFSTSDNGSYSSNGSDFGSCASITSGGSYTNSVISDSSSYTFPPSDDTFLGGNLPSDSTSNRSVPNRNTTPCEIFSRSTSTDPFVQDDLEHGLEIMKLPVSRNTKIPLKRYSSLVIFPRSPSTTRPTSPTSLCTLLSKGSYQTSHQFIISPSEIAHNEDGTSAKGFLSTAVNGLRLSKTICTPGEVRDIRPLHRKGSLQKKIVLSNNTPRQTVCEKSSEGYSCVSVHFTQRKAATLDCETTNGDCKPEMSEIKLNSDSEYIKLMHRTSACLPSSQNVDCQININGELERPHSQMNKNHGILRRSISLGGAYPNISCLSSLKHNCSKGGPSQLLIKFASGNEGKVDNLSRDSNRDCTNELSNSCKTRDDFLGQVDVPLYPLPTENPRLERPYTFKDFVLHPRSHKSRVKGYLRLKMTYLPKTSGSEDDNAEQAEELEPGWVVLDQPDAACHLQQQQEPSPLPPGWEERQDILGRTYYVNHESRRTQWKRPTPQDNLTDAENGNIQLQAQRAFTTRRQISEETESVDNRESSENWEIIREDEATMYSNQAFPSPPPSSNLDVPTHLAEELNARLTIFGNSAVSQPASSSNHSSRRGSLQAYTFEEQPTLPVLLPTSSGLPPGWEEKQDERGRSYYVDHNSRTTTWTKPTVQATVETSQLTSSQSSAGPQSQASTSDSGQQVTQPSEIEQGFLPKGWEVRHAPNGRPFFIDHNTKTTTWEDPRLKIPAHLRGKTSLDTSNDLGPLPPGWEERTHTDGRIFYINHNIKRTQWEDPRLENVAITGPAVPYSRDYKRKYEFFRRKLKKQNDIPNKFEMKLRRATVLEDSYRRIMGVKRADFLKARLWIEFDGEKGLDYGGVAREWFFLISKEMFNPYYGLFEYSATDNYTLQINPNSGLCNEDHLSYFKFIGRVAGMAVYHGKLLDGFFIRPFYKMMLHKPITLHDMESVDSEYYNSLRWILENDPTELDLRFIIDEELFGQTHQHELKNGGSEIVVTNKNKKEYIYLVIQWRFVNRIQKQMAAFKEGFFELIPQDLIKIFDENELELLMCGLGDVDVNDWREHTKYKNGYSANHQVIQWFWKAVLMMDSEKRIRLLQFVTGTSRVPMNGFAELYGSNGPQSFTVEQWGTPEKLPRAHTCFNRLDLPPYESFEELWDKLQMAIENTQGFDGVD
UniProt Q01628: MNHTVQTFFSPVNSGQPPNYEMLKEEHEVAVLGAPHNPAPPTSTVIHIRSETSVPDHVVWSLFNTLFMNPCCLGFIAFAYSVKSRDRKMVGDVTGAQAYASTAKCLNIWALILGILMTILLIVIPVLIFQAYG

[2] = target: HA-NEDD4 (pCI-HA-NEDD4) (UniProt P46934); experiment: as above
[3] = target: T1, Human Myc-tagged NDFIP2 (human); experiment: co-IP; HEK293T cells transfected with the proteins in pairs; lysis/IP buffer 50 mM Tris/HCl pH 7.4, 150 mM NaCl, 0.1% NP-40, 1 mM EDTA; 1 ug monoclonal antibody, Protein A-sepharose; Western blot
[4] = target: HA-NEDD4 (pCI-HA-NEDD4) (UniProt P46934); experiment: as above

Measured: binding

Flag-tagged human IFITM3 (from UniProt Q01628 1-133)
binds: [1] | [2] | [3] | [4]

HA-NEDD4 (pCI-HA-NEDD4) (from UniProt P46934 1-1319) (enzyme)
binds: [1] | [3]
